Weaker means in comparison with the reference protein, sequence or condition of that experiment.
Biological target: LARP4-NTD (1-286) (human) (UniProt Q71RC2)
Experiment: EMSA
Settings: EMSA as described in Yang et al. 2011, pH and temperature not given, protein in uM, recombinant protein, residues 1-286

The chains behind the UniProt entries cited, without tags or fusion partners. Residues count along the entry.
UniProt Q71RC2, 1-286: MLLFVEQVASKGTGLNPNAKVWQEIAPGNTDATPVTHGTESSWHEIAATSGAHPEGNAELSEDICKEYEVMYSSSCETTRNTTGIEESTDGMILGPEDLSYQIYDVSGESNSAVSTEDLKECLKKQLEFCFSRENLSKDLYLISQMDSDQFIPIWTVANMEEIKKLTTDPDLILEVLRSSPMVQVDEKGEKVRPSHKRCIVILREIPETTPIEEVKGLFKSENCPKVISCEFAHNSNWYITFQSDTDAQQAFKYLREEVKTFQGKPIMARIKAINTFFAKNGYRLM

AAAAAAAAAAAAAAA [A15 2'-O-CH3]
binding result (2'-O-methyl (at the 3' end)): binds more weakly

AAAAAAAAAAAAAAA [A15 3'-PO4]
binding result (3'-phosphate): binds more weakly

UUUUUUUUUUUUUUU [U15 3'-OH]
binding result: binds more weakly
